## Microarray screen: hit calls

Oligonucleotides screened, 5′ to 3′:
T1: TPP riboswitch RNA three-way junction, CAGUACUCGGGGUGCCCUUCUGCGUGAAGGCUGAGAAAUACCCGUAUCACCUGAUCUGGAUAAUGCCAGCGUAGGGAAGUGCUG. About 160 hits among about 24,000 compounds.
T2: PreQ1 riboswitch RNA pseudoknot, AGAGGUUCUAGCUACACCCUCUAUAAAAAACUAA. From B. subtilis. About 170 hits among about 24,000 compounds.
T3: SAM-II riboswitch RNA pseudoknot, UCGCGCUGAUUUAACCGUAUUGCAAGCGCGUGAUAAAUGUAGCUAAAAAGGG. About 200 hits among about 21,000 compounds.

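The test is a small-molecule microarray: each compound is printed twice on a reactive slide, and binding shows as fluorescence of the labelled oligonucleotide after washing. The data file lists only calls. An earlier report of the laboratory on the PreQ1, TPP and SAM-II riboswitches (doi:10.1038/s41467-019-09493-3) used 1 µM RNA for 2 h and required a mean Z-score above 3 (spot signal-to-noise against the whole library), a score well above that on a control array, and duplicate spots agreeing (coefficient of variation under 100); it then also set aside compounds that hit other targets, which this list keeps. The cut-offs behind this list may differ. These are primary screening calls, not affinities; a compound without a hit may have attached poorly or may still bind in solution.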 “yes” means called a hit, “no” means screened and not called a hit. The compounds are a random part of those screened. A dash means that no call is listed here.

structure | T1 | T2 | T3
COc1ccc(-n2cccn2)c(-c2cc(C3CC3)nc(N)c2C#N)c1 | no | no | no
O=C(CCc1cc2n(n1)CCCNC2)N1CCCN(c2ccncc2)CC1 | no | no | no
CCOC(=O)c1cnc2c(-c3ccc(OC)cc3)c(C(C)C)nn2c1N | no | no | no
CCNc1nc(C)cc(N2CCN(S(=O)(=O)c3ccc(C(C)(C)C)cc3)CC2)n1 | no | no | -
Nc1nonc1C(=O)N1CCN(C(=O)c2ccccc2)CC1 | no | no | -
O=C(CN1CCC(c2ccccc2)CC1)N1CCOCC(O)C1 (centres unmarked) | no | no | no
O=C(CCc1cc2n(n1)CCNC2)NCc1nc2ccc(Cl)cc2[nH]1 | no | no | no
Cc1ccc(Nc2nc(Cl)nc3ncn(C)c23)c(C)c1 | no | no | no
OCCC1CNCCN1Cc1c(F)cccc1Cl (centres unmarked) | no | no | no
CCCCCC(=O)C(=O)c1ccc(O)cc1O | no | no | no
CCOC(=O)C1=C(C)OC(N)=C(C#N)C12C(=O)Nc1ccc(C)cc12 (centres unmarked) | no | no | no
CC1CCN(c2c(NCC3CCC(C(=O)N4CCc5ccccc54)CC3)c(=O)c2=O)CC1 (centres unmarked) | no | no | -
CC(C)c1ccc(NC2CCCN(c3cnc4ccccc4n3)C2)cc1 (centres unmarked) | no | no | no
Nc1nc(NCc2cc3ccc(F)cc3[nH]c2=O)cc(N2CCOCC2)n1 | no | no | no
c1ccc(COc2ccc(-n3ccnc3-c3cc4n(n3)CCNC4)cc2)nc1 | no | no | no
Nc1ccc2nn(-c3cccc(Cl)c3)nc2c1 | yes | no | yes
Cc1nc(C)c(-c2csc(Nc3cccc(O)c3)n2)s1 | no | no | no
Cc1cccc(CN[C@H]2CS(=O)(=O)C[C@@H]2S(=O)(=O)c2ccc(Cl)cc2)c1 | no | no | -
CN1C2CC(OC(=O)C(CO)c3ccccc3)CC1C(O)C2 (centres unmarked) | no | no | no
COc1ccccc1CNCc1ccc(Br)cc1 | no | no | no
COc1cccc(CN(C)CC2(CO)CC2)c1F | no | no | no
CNC1[C@H](O)C(O[C@@H]2C(O)C(O[C@H]3O[C@H]([C@@H](C)NC)CC[C@H]3N)[C@@H](N)C[C@H]2N)OC[C@]1(C)O (some centres unmarked) | no | no | no
CNC(=O)[C@@H]1C[C@@H](NC(=O)CN2CCOC2=O)CN1Cc1cccnc1N | no | no | no
CCCCOc1ccc(/N=N\c2ccc(N)nc2N)cn1 | no | no | no
OCC(CO)(CO)c1ccccn1 | no | no | no
CCCCNc1cc(C)nc2cc(-c3ccccc3OC)nn12 | no | no | -
CC=C1C2C=C(C)CC1(N)c1ccc(=O)[nH]c1C2 (centres unmarked) | no | no | no
Nc1n[nH]c2nc(-c3ccccc3)[nH]c(=O)c12 | no | no | no
CN(C)S(=O)(=O)CCNC(=O)C(O)c1ccc(C(F)(F)F)cc1 (centres unmarked) | no | no | no
Nc1cc(OC(=O)c2ccco2)nn1S(=O)(=O)c1ccc(Cl)cc1 | no | no | no
CC(C)(C)c1[nH]cnc1C=c1[nH]c(=O)c(=Cc2ccccc2)[nH]c1=O | no | no | no
COc1ccc(CNCCC2(c3ccccc3)CCOC(C(C)C)C2)cc1 (centres unmarked) | no | no | no
CN(C)Cc1c[nH]c2nccnc12 | no | no | no
Nc1ncnc2c1ncn2[C@@H]1O[C@H](CO)[C@@H](O)[C@@H]1O | no | no | no
O=C(CC1CCS(=O)(=O)C1)N1CCC(CO)(Cc2ccccc2)CC1 (centres unmarked) | no | no | no
COCCNc1nc2c(c(=O)n(C)c(=O)n2C)n1Cc1cccc(Cl)c1 | no | no | no
c1ccc2sc(N3CCC(NCCSc4cnn[nH]4)CC3)nc2c1 | no | no | no
CSCCc1nc(-c2cc(C)nc3cc(F)ccc23)n(CCO)n1 | no | no | no
Cc1ccc(NC(=O)Nc2c(Cl)cccc2Cl)cn1 | no | no | no
Cn1ncnc1CCNc1nc(-c2ccccn2)nc2c1CCNCC2 | no | no | no
Nc1c(C(=O)c2ccc(Cl)cc2)sc2nc3c(cc12)N1CCC3CC1 | no | no | no
CN(Cc1cnn(-c2ccccc2)c1)C(=O)c1ccc(CC2CCCNC2)cc1 (centres unmarked) | no | no | no
CC(NC1CCN(c2ncccn2)CC1)c1nc(-c2ccncc2)no1 (centres unmarked) | no | no | no
C[C@@H](Oc1cc(-c2cnn(C3CCNCC3)c2)cnc1N)c1c(Cl)ccc(F)c1Cl | no | no | no
CCc1ccccc1NC1=C(C(N)=O)S(=O)(=O)c2ccccc21 | no | no | -
O=C(Cn1c(=O)oc2ccccc21)N1CCC(Cc2cccc(CO)c2)C1 (centres unmarked) | no | no | no
O=c1c([N+](=O)[O-])c(NC2CCCCC2)c2ccccc2n1-c1ccccc1 | no | no | no
CCCc1nc2nc(C)cc(Nc3ccc(Br)cc3F)n2n1 | no | no | no
Cc1ccc2c(N)c(C(=O)c3ccccc3)sc2n1 | no | no | no
NCCCCCc1nnc(SCc2ccc(F)cc2)o1 | no | no | no
CNCc1ccc(-c2ccc(OC)c(Cl)c2)o1 | no | no | no
CC(C)c1cc(NC2CCCC2)n2nc(-c3cccnc3)nc2n1 | no | no | -
CC(=O)c1cccc(NCN2C(=O)C3C4C=CC(C5CC45)C3C2=O)c1 (centres unmarked) | no | no | no
CC(C)CS(=O)(=O)c1ncc(CO)n1Cc1ccccc1 | no | no | no
N#CC1=C(N)OC2=C(C(=O)CCC2)C1c1cc(CN2CCOCC2)cs1 (centres unmarked) | no | no | no
CC(C)Cc1noc(C(C)n2ccnc2-c2cc3n(n2)CCCNC3)n1 (centres unmarked) | no | no | no
CCOC(=O)c1ccc2nc(C)cc(Nc3cccc(C(=O)O)c3)c2c1 | no | no | no
CCOc1ccc(C)cc1S(=O)(=O)N1C[C@@H](CN(C)C)[C@@H](CO)C1 | no | no | no
CCc1nnc2c(Nc3ccccc3Br)nc3ccccc3n12 | no | no | no

6 of the entries, repeated:

structure	T1	T2	T3
Nc1nonc1C(=O)N1CCN(C(=O)c2ccccc2)CC1	no	no	-
Nc1ncnc2c1ncn2[C@@H]1O[C@H](CO)[C@@H](O)[C@@H]1O	no	no	no
CC(C)c1ccc(NC2CCCN(c3cnc4ccccc4n3)C2)cc1 (centres unmarked)	no	no	no
O=c1c([N+](=O)[O-])c(NC2CCCCC2)c2ccccc2n1-c1ccccc1	no	no	no
CCc1ccccc1NC1=C(C(N)=O)S(=O)(=O)c2ccccc21	no	no	-
C[C@@H](Oc1cc(-c2cnn(C3CCNCC3)c2)cnc1N)c1c(Cl)ccc(F)c1Cl	no	no	no

Source: the ROBIN nucleic acid binder screens (doi:10.1002/anie.202211358).